Where a chain is given by its changes, count along the chain named. For some of these results: Negatives hold for the conditions tested. For some of these results: At least one verdict was read from the data and is not stated in words by the source. For some of these results: Protein sequences can lack the tags named with them. For some of these results: Construct, isoform or probe ends are uncertain for at least one entry. For some of these results: A weaker result is weaker than the reference pair of the same experiment.

Common to all, as to assay: EMSA
(Mobility shift assays separate free from complexed probe on a gel.)

Data set [1] addresses T1, hsRBFA KH-like (Homo sapiens) (UniProt Q8N0V3).
T1 sequence (looked up): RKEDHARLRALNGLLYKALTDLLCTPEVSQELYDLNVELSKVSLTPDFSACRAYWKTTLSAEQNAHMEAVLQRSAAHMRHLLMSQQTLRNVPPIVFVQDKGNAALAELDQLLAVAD
The conditions noted are these: EMSA: 20 mM Tris-HCl pH 8.0, 200 mM NaCl, 37 C 30 min, 200 nM ssRNA or 2 uM dsRNA; recombinant protein; residues 86-201; protein details: His6-MBP N-terminal.

Data set [2] has as its target T2, hsRBFA Nt-KH (Homo sapiens) (UniProt Q8N0V3).
T2 sequence (looked up): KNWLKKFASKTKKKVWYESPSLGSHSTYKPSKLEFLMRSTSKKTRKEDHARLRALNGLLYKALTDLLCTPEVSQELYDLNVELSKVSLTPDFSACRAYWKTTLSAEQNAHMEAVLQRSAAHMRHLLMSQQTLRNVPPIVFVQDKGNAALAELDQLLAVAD
The settings on record: EMSA: 20 mM Tris-HCl pH 8.0, 200 mM NaCl, 37 C 30 min, 200 nM ssRNA or 2 uM dsRNA; recombinant protein; residues 42-201; protein details: His6-MBP N-terminal.

Data set [3] deals with hsRBFA A-mut E59A,E75A,E88A,D89A (Homo sapiens). The conditions noted are these: EMSA: 20 mM Tris-HCl pH 8.0, 200 mM NaCl, 37 C 30 min, 200 nM ssRNA or 2 uM dsRNA; recombinant protein; protein details: His6-MBP N-terminal; label: 5'-FAM in FP.
Data set [4] has as its target T3, hsRBFA near full-length (Homo sapiens) (UniProt Q8N0V3).
T3 sequence (looked up): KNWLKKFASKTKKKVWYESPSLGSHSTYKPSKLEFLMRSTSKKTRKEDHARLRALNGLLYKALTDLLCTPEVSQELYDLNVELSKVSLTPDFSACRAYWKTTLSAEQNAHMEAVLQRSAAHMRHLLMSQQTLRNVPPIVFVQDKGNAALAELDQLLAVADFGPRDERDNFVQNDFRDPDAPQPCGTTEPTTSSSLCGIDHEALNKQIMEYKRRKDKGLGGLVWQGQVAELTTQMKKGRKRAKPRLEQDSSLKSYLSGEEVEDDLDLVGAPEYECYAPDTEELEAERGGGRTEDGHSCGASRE
The conditions noted are these: EMSA: 20 mM Tris-HCl pH 8.0, 200 mM NaCl, 37 C 30 min, 200 nM ssRNA or 2 uM dsRNA, recombinant protein, residues 42-343, protein details: His6-MBP N-terminal.

The subject of data set [5] is hsRBFA N-mut K42A,K46A,K47A,K51A,K53A,K54A,K55A,E59A,K70A,K73A,E75A,E88A,D89A (Homo sapiens). The conditions noted are these: EMSA: 20 mM Tris-HCl pH 8.0, 200 mM NaCl, 37 C 30 min, 200 nM ssRNA or 2 uM dsRNA; recombinant protein; protein details: His6-MBP N-terminal; label: 5'-FAM in FP.
Data set [6] deals with hsRBFA B1 mutant K42A,K46A,K47A,K51A (Homo sapiens) (UniProt Q8N0V3). The settings on record: EMSA: 20 mM Tris-HCl pH 8.0, 200 mM NaCl, 37 C 30 min, 200 nM ssRNA or 2 uM dsRNA; recombinant protein; protein details: His6-MBP N-terminal; label: 5'-FAM in FP.
The subject of the next data set is MBP tag. The conditions noted are these: EMSA: 20 mM Tris-HCl pH 8.0, 200 mM NaCl, 37 C 30 min, 200 nM ssRNA or 2 uM dsRNA; recombinant protein; label: 5'-FAM in FP.
Data set [7] concerns the target T4, hsRBFA B2 mutant K53A,K54A,K55A,K70A,K73A (Homo sapiens) (UniProt Q8N0V3).
T4 sequence (looked up, limits assumed): T2 sequence (looked up) with K12A, K13A, K14A, K29A, K32A
The settings on record: EMSA: 20 mM Tris-HCl pH 8.0, 200 mM NaCl, 37 C 30 min, 200 nM ssRNA or 2 uM dsRNA; recombinant protein; protein details: His6-MBP N-terminal; label: 5'-FAM in FP.

Data set [8] addresses hsRBFA B-mut K42A,K46A,K47A,K51A,K53A,K54A,K55A,K70A,K73A (Homo sapiens) (UniProt Q8N0V3). The settings on record: EMSA: 20 mM Tris-HCl pH 8.0, 200 mM NaCl, 37 C 30 min, 200 nM ssRNA or 2 uM dsRNA; recombinant protein; protein details: His6-MBP N-terminal; label: 5'-FAM in FP.
The target of data set [9] is T5, hsRBFA KH-Ct (Homo sapiens) (UniProt Q8N0V3).
T5 sequence (looked up): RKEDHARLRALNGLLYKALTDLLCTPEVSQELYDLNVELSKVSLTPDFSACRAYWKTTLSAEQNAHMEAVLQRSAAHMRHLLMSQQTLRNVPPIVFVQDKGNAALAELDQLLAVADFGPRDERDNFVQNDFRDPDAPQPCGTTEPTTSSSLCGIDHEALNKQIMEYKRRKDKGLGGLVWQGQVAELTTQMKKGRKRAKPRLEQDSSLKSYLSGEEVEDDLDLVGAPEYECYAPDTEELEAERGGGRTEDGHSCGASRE
The settings on record: EMSA: 20 mM Tris-HCl pH 8.0, 200 mM NaCl, 37 C 30 min, 200 nM ssRNA or 2 uM dsRNA, recombinant protein, residues 86-343, protein details: His6-MBP N-terminal.

For AGUGCACUUG [ssRNA-4], the binding result in [1] and in data set [2] was “no binding” throughout.

As for CGCACCACAAGCG [h44-2], in [2], the binding result is reported as “binds”.

Take CUCCUCGAAGGAGGAG [h44-1]: the binding result in data set [2] is on record as “binds”.

On to GACGAAC [ssRNA-3'end], for which the binding result in data set [2] was “no binding”.

GAGGAGACAA [ssRNA-1]: the binding result in [1] and in [2] was “no binding” throughout.

On to GGCGUCACCACAAGUCGCC [h44-3], for which the binding result in [2] is recorded as “binds”.

Consider GGCGUCACCCUCUUCGGAGACAAGUCGCC [h44], for which the binding result in [3] is listed as “binds”; in [4] (label: 5'-FAM in FP) it was “binds”; in [5] it was “no binding”; in data set [6], “binds more weakly”; with MBP tag it was “no binding”; in data set [7] it was “binds more weakly”. In addition, the binding result in [8] and in data set [9] (label: 5'-FAM in FP) was “no binding” throughout.

GGGCCCGUAACCC [h44-4]: in data set [2], the binding result was “binds”.

For the sequence GGUGGCGGUGCUUCAUUCGUGAAGCGCGUCACC [h28], the binding result is on record as “binds” in data set [4] and “no binding” in data set [9].

As for GUCGUAACAU [ssRNA-2], the binding result in data set [1] and in data set [2] was “no binding” throughout.

On to UAAGUGUACU [ssRNA-3], for which the binding result in [1] and in [2] was “no binding” throughout.

As for UAAGUGUACUGGAAAGUGCACUUG [h45], the binding result was “binds” in data set [4] and “no binding” in [9].

These data come from article PMC9943654, “The recognition mode between hsRBFA and mitoribosome 12S rRNA during mitoribosomal biogenesis”.
